According to patent US10988737B2, “Clinical gene signature-based human cell culture model and uses thereof” (priority 2015, dated 2021):
At least one compound was matched to its structure with a doubt left.

Columns and labels:
[1] = system: HCC risk signature in HCV Jc1-infected Huh7.5.1^dif cells; assay: HCC risk signature in HCV Jc1-infected Huh7.5.1dif cells after antiviral or EGFR/MAPK pathway inhibitor treatment; assay type: cell-based, human; details: three days treatment from day 7 post-infection
ERK1/2 = assay: Proteome Profiler Human Phospho-kinase Array in HCV-infected liver cells; assay type: cell-based; details: low inhibitor concentrations
Protocol: Proteomic Analyses. For proteomic analyses, Huh7.5.1^dif cells that had undergone DMSO-mediated differentiation, were infected with HCV Jc1E2^FLAG (TCID50=10^7/mL) as described above. On day 7, receptor tyrosine kinase (RTK) phosphorylation was assessed in cell lysates using the Human Phospho-RTK Array Kit as previously described (Lupberger et al., Nat. Med., 2011, 17: 589-595; and Zona et al., Cell Host Microbe, 2013, 13: 302-313). The effect of MAPK inhibitors on signaling was confirmed using the Proteome Profiler Human Phospho-kinase Array according to manufacturer's instructions (R&D Systems). Amounts of phospho-proteins were assessed using a horseradish peroxidase-conjugated pan-phospho-tyrosine-specific antibody (R&D Systems, Minneapolis, Minn., USA) followed by chemiluminescence detection (GE Healthcare, Cleveland, Ohio, USA) according to manufacturer's instructions. The relative dot-blot density of the phosphorylated proteins in HCV Jc1E2^FLAG infected samples compared to non-infected controls was quantified using Image J software (NIH) by elliptical selection of individual dots and measuring standard deviation and integrated density.

HCV Jc1 = assay: HCV viral load in HCV Jc1-infected Huh7.5.1dif cells (qRT-PCR of intracellular HCV RNA); assay type: cell-based; details: HCV-infected Huh7.5.1dif cells, at the concentrations that suppress the signature
Protocol: HCV Infection of Huh7.5.1^dif cells. Cell culture-derived HCVcc Jc1 (genotype 2a/2a) (Pietschmann et al., PNAS USA, 2006, 103: 7408-7413) were generated in Huh7.5.1 cells as previously described (Wakita et al., Nat. Med., 2005, 11: 791-796). HCV Jc1E2^FLAG was purified using anti-FLAG M2 affinity gel (Sigma-Aldrich, St.Louis, Mo., USA) as described (Merz et al., J. Biol. Chem., 2011, 286: 3018-3032). HCVcc infectivity was determined by calculating the 50% tissue culture infectious doses (TCID50) as previously described (Lindenbach et al., Science, 2005, 309: 623-626). Huh7.5.1^dif cells were infected with HCV Jc1 or HCV Jc1E2^FLAG. Cell culture supernatants from mock-electroporated cells or 100 μg/mL of FLAG peptide were used for control experiments. HCV infection was assessed by qRT-PCR of intracellular HCV RNA (Xiao et al., PLoS Pathog., 2014, 10: e1004128) as well as immunostaining using HCV E2-specific AP33 antibody as previously described (Krieger et al., Hepatology, 2010, 51: 1144-1157).

Cn1cncc1[C@@](N)(c1ccc(Cl)cc1)c1ccc2c(c1)c(-c1cccc(Cl)c1)cc(=O)n2C [tipifarnib]
HCC high-risk gene expression [1]: suppressed | ERK1/2 phosphorylation (virus-induced MAPK signaling) (ERK1/2): reduced | effect on HCV viral load (HCV Jc1): absent effects
